Test results: paper PMC9547286, “LOXL2-dependent deacetylation of aldolase A induces metabolic reprogramming and tumor progression^☆” (Redox Biology, 2022)
No constants are given. Whether binding was seen depends on the method and setting. Binding seen in cells or lysates may run through a third protein. Some binding calls cover weakened binding; strength is not graded here. For some assays here: Sequences can lack the tags named with a protein.

Amino acid sequences for entries named in this document (tags omitted). Residues count along the entry.
UniProt P04406: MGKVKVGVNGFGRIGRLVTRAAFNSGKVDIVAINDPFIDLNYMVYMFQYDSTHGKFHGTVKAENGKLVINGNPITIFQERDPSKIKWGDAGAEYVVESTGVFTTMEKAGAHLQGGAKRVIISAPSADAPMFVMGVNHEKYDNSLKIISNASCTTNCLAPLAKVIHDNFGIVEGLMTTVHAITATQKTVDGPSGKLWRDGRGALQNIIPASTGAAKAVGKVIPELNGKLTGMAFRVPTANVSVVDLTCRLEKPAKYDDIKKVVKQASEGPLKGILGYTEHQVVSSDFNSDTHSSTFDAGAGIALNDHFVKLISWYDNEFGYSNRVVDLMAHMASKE
UniProt P06733: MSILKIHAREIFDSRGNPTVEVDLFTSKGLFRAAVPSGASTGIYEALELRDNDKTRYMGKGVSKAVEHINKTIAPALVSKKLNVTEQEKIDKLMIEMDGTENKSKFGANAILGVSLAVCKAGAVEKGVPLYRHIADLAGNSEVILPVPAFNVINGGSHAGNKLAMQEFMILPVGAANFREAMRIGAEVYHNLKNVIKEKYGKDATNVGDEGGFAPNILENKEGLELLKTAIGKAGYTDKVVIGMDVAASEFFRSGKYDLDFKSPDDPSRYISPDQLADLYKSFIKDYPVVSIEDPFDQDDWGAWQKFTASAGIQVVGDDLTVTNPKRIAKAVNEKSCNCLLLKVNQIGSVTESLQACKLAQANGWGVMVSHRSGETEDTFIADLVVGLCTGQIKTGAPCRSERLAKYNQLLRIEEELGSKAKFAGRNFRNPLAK
UniProt Q9Y4K0, residues 26-774: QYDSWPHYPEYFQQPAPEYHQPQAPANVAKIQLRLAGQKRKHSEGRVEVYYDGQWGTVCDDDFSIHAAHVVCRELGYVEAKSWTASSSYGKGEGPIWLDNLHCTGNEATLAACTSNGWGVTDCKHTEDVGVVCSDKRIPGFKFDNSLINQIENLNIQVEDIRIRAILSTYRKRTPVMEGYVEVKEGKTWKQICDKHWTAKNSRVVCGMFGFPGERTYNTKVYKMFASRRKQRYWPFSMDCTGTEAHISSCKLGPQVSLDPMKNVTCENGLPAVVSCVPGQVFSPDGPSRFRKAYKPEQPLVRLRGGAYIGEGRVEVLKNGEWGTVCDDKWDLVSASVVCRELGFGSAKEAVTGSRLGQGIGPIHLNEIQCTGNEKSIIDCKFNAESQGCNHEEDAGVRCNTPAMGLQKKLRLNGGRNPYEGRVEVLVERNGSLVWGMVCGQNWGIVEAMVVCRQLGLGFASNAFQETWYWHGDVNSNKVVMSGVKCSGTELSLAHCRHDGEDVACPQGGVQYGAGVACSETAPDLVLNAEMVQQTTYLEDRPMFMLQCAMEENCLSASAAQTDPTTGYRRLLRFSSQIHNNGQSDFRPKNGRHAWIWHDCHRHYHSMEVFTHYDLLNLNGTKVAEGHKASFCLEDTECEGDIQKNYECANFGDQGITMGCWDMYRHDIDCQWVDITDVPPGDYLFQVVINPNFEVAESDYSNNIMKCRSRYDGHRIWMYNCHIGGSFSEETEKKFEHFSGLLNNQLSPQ

How the values were obtained:
[1] = target: GAPDH-Flag (glyceraldehyde-3-phosphate dehydrogenase) (UniProt P04406); assay: co-IP; HEK293T cells co-transfected with LOXL2-HA or L2Δ13-HA and Flag-tagged glycolytic enzyme; whole cell lysates immunoprecipitated with anti-Flag, western blotting
aldolase A-Flag (human) = target: T1, aldolase A-Flag (human) (UniProt P04075); assay: as above
T1 sequence: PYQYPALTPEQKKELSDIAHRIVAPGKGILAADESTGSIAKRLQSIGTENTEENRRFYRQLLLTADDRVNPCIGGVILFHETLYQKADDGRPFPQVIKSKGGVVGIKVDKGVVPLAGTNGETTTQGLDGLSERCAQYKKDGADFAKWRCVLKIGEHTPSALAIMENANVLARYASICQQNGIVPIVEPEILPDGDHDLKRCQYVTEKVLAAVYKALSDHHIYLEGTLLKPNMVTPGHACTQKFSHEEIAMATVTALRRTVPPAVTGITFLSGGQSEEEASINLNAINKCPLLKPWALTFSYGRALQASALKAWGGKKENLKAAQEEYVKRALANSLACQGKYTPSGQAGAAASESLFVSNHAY

enolase-Flag = enolase-Flag (UniProt P06733); assay: as above
GST-aldolase A (human) = target: T2, GST-aldolase A (human) (UniProt P04075); assay: pull-down; GST-aldolase A or GST immobilised on glutathione resins, incubated with KYSE510 whole cell lysate at 4 °C for 2 h; washed with lysis buffer pH 7.3, 137 mM NaCl, 0.1% Triton X-100; western blotting; only the target purified
T2 sequence: T1 sequence

[2] = target: T3, endogenous aldolase A of KYSE510 cells (human (endogenous in KYSE510)) (UniProt P04075); assay: proximity ligation; Duolink in situ PLA in fixed, permeabilised KYSE510 cells; rabbit anti-LOXL2, anti-L2Δ13 or anti-GAPDH with mouse anti-aldolase A; endogenous proteins
T3 sequence: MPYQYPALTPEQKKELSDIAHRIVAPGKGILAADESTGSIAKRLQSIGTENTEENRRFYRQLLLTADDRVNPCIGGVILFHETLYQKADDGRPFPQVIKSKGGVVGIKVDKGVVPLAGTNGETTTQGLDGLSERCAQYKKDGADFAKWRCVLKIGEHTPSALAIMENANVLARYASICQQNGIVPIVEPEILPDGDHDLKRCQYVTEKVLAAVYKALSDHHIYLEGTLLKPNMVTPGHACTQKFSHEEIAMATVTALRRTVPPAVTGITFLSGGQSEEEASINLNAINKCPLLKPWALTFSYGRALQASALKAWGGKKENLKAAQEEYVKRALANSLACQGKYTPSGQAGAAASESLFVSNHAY

binding [1]	binding (aldolase A-Flag (human))	binding (enolase-Flag)	binding (GST-aldolase A (human))	binding [2]	Substance
binds	binds	binds	–	–	LOXL2-HA (lysyl oxidase-like 2, full-length) (from UniProt Q9Y4K0 26-774) (enzyme)
–	–	–	binds	binds	endogenous LOXL2 of KYSE510 cells (from UniProt Q9Y4K0 26-774) (enzyme)
